We go through 58 compounds from PubChem BioAssay AID2685 (National Center for Advancing Translational Sciences (NCATS), 2010).

This is one part of the list. The main result of the screen is listed elsewhere. These columns were measured beside it and carry no call. Most of these compounds were active or inconclusive in the main read-out, so they are no random draw. Words in brackets tell the shape of the fitted curve; partial curves, single points and poor fits give uncertain potencies.

This assay in a line: qHTS Assay for Lipid Storage Modulators in Drosophila S3 Cells.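 For cell number change: cells counted by Cell Tracker Red CMTPX staining in the red channel.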 The note with it: BODIPY lipid droplet fluorescence, 18-24 h; for cell number change: measured here: cell count max response, cells fed with added oleic acid. Summed up:
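Drosophila S3 cells got compounds at several concentrations plus oleic acid (400 uM solution). Laser-scanning cytometry with 488 nm excitation read lipid droplets at 500-530 nm and cells at 575-640 nm. Percent activity was relative to 20 uM Triacsin C.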
A general note: In qHTS, concentration-response curves come from the screen itself.

The mark [1] stands for this setting: measured here: cell number channel AC50, cells fed with added oleic acid.
[2] abbreviates: measured here: lipid fluorescence (Fed channel) AC50, cells fed with added oleic acid.

For `Cc1ccc(NC(=O)CCNC(=O)N2C[C@H]3C[C@@H](C2)c2cccc(=O)n2C3)c(C)c1`, the cell number change worked out at 6.98%.
In the case of `CCOc1ccccc1C1SCC(=O)Nc2c1c(=O)[nH]n2C(CC)CC` (stereo not given), the cell number change is 43.6%. Moreover, under setting [1], the AC50 is 16.4 µM [rising, single point]. In addition, the AC50 under setting [2] was 16.4 µM [rising, single point].
For the compound `CCN(CC)C(=O)c1ccc(NC(=O)c2cccc(F)c2)cc1`, the cell number change is 12.7%. For the same compound, the AC50 under setting [2] was 14.6 µM [falling, partial curve, poor fit].
With `CC(=NCC1CCCO1)c1c(O)n(C2CCCCC2)c(=O)[nH]c1=O` (stereo not given), under setting [2], the AC50 was 0.82 µM [falling, single point].
Consider `O=C1CC(=O)N(Cc2ccccc2)C(=S)N1`, for which the cell number change came to 1.9%.
For `COc1ccc(NC2=NCC(C)S2)cc1` (stereo not given), the cell number change came to 0.465%. For the same compound, under setting [1], the AC50 was 6.51 µM [falling, single point]. Further, the AC50 under setting [2] is 6.51 µM [falling, single point].
Regarding `O=C(CN1CC=C(c2ccccc2)CC1)Nc1cc(Cl)ccc1Cl`, the cell number change was determined as 11.4%. Besides, the AC50 under setting [2] was 14.6 µM [rising, partial curve, poor fit].
For the compound `CC/C(=N\N1CCCCCC1)c1c(O)n(-c2ccc(C)cc2)c(=O)[nH]c1=O`, the cell number change is -13.8%. Moreover, under setting [2], the AC50 was 20.6 µM [falling, single point].
Turning to `NCCc1ccc(S(N)(=O)=O)cc1`, the cell number change is -19.4%. In addition, the AC50 under setting [2] was 29.1 µM [falling, single point].
As for `COc1ccc2c(c1OC)C(=O)O[C@H]2[C@@H]1c2cc3c(cc2CCN1C)OCO3`, the cell number change amounted to 37.4%. Further, the AC50 under setting [1] was 3.66 µM [rising, full curve]. Further, under setting [2], the half-maximal activity concentration (AC50) is 1.84 µM [rising, full curve].
Regarding `Cc1cc(OCC(=O)N2CCC(C(=O)NCC(C)C)CC2)c2c3c(c(=O)oc2c1)CCCC3`, the cell number change amounted to 1.83%. Also, the AC50 under setting [2] is 20.6 µM [rising, single point].
`CC(=O)Nc1ccc(CC(=O)N2CCN(Cc3ccccc3)CC2)cc1`: the cell number change turned out to be 8.11%. Further, the AC50 under setting [2] was 0.58 µM [falling, single point].
Take `O=C1NC(=O)C(=Cc2ccc(OCCOc3ccc([N+](=O)[O-])cc3)cc2)C(=O)N1`: the cell number change came to 12.6%.
Take `CCCCn1c(O)c(C=Nc2c(C)n(C)n(-c3ccccc3)c2=O)c(=O)[nH]c1=O`: the cell number change is 1.43%.
For `CCCN1CCO[C@@H]2c3cc(O)ccc3OC[C@H]21`, the cell number change is -38.3%. Further, under setting [1], the AC50 is 25.9 µM [falling, single point].
`COc1ccc(C2SCC(=O)Nc3c2c(C)nn3C2CCOC(C)(C)C2)cc1OC` (stereo not given): the AC50 under setting [2] was 25.9 µM [rising, single point].
`CN1C(=O)N(C)C(=O)C2(Cc3c(nc4ccccn4c3=O)N3CCC(Cc4ccccc4)CC32)C1=O` (stereo not given): the cell number change came to 11.4%. For the same compound, the AC50 under setting [2] is 1.3 µM [rising, full curve, poor fit].
As for `COC(=O)C1=C(c2cccc(OCc3ccccc3)c2)C[C@@H]2CC[C@H]1N2C(=O)NCc1ccc(C(F)(F)F)cc1`, the cell number change was -30.9%. The AC50 under setting [1] is 32.6 µM [falling, single point]. The AC50 under setting [2] was 29.1 µM [falling, single point].
Regarding `COc1ccc(CCNC(=O)c2c(N)n(CCN3CCOCC3)c3nc4ccccc4nc23)cc1OC`, the cell number change is -45.7%. Further, under setting [1], the AC50 was 29.1 µM [falling, single point]. For the same compound, the AC50 under setting [2] is 29.1 µM [falling, single point].
Regarding `Fc1ccc(C(OCCN2CCCC2)c2ccc(F)cc2)cc1`, the cell number change was 1.33%. Further, under setting [2], the AC50 is 0.00461 µM [falling, full curve, poor fit].
As for `Cc1ccc(S(=O)(=O)N(C)c2ccc(C(=O)NCC3(N(C)C)CCCCC3)cc2)cc1`, the cell number change was 25.8%. Besides, under setting [2], the AC50 is 4.11 µM [rising, full curve].
Turning to `N#Cc1ccc(NC(=O)CN2C(=O)NC3(CCCCCCC3)C2=O)cc1Cl`, the cell number change is -18.2%.
Take `Cc1ccc(/C=C2\C(=O)NC(=O)N(CCc3ccc(F)cc3)C2=O)o1`: the cell number change is -27.5%. Moreover, the concentration at half-maximal activity (AC50) under setting [2] was 29.1 µM [falling, single point].
Turning to `O=C(CF)NC(NC(=S)Nc1ccccc1O)C(Cl)(Cl)Cl` (stereo not given), the cell number change is -14.3%.
Consider `CCOC(=O)C1CCN(C=C2C(=O)N(C)C(=S)N(C)C2=O)CC1`, for which the cell number change was 5.02%. The AC50 under setting [2] was 20.6 µM [rising, partial curve].
On to `COC(=O)C1=C(c2c(C)noc2C)C[C@@H]2CC[C@H]1N2C(=O)NC(C)C`, for which the cell number change worked out at 11%. Also, the AC50 under setting [1] is 4.61 µM [falling, single point]. Also, the concentration at half-maximal activity (AC50) under setting [2] is 4.61 µM [falling, single point].
On to `COc1ccccc1N1CCN(Cc2ccccc2)CC1`, for which the cell number change was 31.8%.
For the compound `N#CC(C#N)=C(C#N)c1ccc(Nc2ccccc2)cc1`, the cell number change worked out at 12.4%. The AC50 under setting [2] was 29.1 µM [rising, single point].
Take `CCCCNC(=O)Nc1ccc(C(O)(C(=O)OC)C(F)(F)F)cc1` (stereo not given): the cell number change is -10.3%. For the same compound, under setting [2], the AC50 is 0.366 µM [falling, full curve, poor fit].
As to `Cc1cc2oc(=O)cc(-c3cc4ccccc4o3)c2cc1OC(=O)N(C)C`, the AC50 under setting [2] is 25.9 µM [falling, partial curve].
Turning to `CCN1C(=O)NC(=O)/C(=C/c2cc(C)n(-c3sc(C)c(C)c3C#N)c2C)C1=O`, the cell number change amounted to 7.71%. In addition, under setting [2], the AC50 was 6.51 µM [rising, partial curve, poor fit].
`COC(=O)c1cc(NC(=O)Cn2c(=O)oc3ccccc32)cc(C(=O)OC)c1`: the AC50 under setting [1] was 29.1 µM [rising, single point].
`CCN(CC)c1ccc(C=C2C(=O)N(C)C(=S)N(C)C2=O)o1`: the cell number change turned out to be 6.74%. Besides, the AC50 under setting [2] is 29.1 µM [falling, partial curve, poor fit].
Turning to `O=c1[nH]c(=S)n(C2CC2)c(O)c1C=Nc1ccc2c(c1)OCO2`, the cell number change was -0.951%.
As for `COC(=O)C1=C(c2cccc(OCc3ccccc3)c2)C[C@@H]2CC[C@H]1N2C(=O)NNCc1ccccc1`, the cell number change is 13.8%. Under setting [2], the AC50 was 0.00461 µM [rising, full curve, poor fit].
For the compound `O=[N+]([O-])c1ccc(C[n+]2c(-c3ccccc3)cc(-c3ccccc3)cc2-c2ccccc2)cc1`, the cell number change is -39.7%. Further, under setting [1], the AC50 is 32.6 µM [falling, partial curve, poor fit]. For the same compound, under setting [2], the AC50 is 32.6 µM [falling, partial curve].
For the compound `Clc1ccc(C(c2ccc(Cl)cc2)n2cc[n+](CC(OCc3ccc(Cl)cc3Cl)c3ccc(Cl)cc3Cl)c2)cc1` (stereo not given), the cell number change was -85.8%. Besides, the AC50 under setting [1] was 7.31 µM [falling, partial curve]. Under setting [2], the AC50 was 5.17 µM [falling, full curve].
`COC(=O)C1=C(c2ccc(F)cc2OCc2ccccc2)C[C@@H]2CC[C@H]1N2C(=O)NCc1ccc(N(C)C)cc1`: the cell number change was -18.5%. Further, the AC50 under setting [2] was 0.731 µM [falling, full curve].
On to `COc1ccc(CCC(=O)N2CCC3(CC2)OCCO3)cc1`, for which the cell number change was 7.03%.
Take `CCOC(=O)c1c(C)[nH]c(C(=O)C(Cc2ccccc2)N(C)C)c1C` (stereo not given): under setting [2], the AC50 was 5.17 µM [rising, single point].
For the compound `COc1cccc(N2C(=O)NC(=O)/C(=C\c3ccc([N+](=O)[O-])s3)C2=O)c1`, the cell number change is -11.2%.
On to `Cc1ccc(CN2C(=O)CN=C(c3ccccc3)c3ccccc32)cc1`, for which the AC50 under setting [2] was 29.1 µM [falling, single point].
On to `CCOC(=O)C(O)(c1ccc(NC(=O)NC2CCCCC2)cc1)C(F)(F)F` (stereo not given), for which the cell number change is 26.6%. In addition, under setting [1], the AC50 is 1.64 µM [rising, full curve, poor fit]. Further, the AC50 under setting [2] is 4.61 µM [rising, partial curve].
With `CCOC(=O)C1=C(N)OC2=C(C(=O)CC(C)(C)C2)C12C(=O)Nc1ccccc12` (stereo not given), the cell number change is 7.76%. In addition, the AC50 under setting [2] was 0.00461 µM [falling, full curve, poor fit].
As to `Clc1cc(Cl)c(-c2cc(Cl)c(Cl)cc2Cl)cc1Cl`, the cell number change stood at 12%. For the same compound, the AC50 under setting [2] is 4.61 µM [rising, single point].
As for `O=C(CSC1c2ccccc2-c2ccccc21)N/N=C/c1ccccc1C(=O)O`, the cell number change is -1.04%. For the same compound, the AC50 under setting [2] was 3.66 µM [rising, single point].
As to `O=C1CC(c2ccccc2)CN1` (stereo not given), the cell number change is -13.7%.
As to `CN1CC(C(=O)c2ccccc2)C(c2ccccc2)C1` (stereo not given), the cell number change is 0.518%. For the same compound, the AC50 under setting [2] was 0.082 µM [falling, full curve, poor fit].
Regarding `Cc1cc(O)c2c(c1)C(=O)C13C(=C2O)C(=O)[C@H]2[C@@H](O)[C@@H]1[C@H]1[C@H](O)[C@@H]3C(=O)C3=C(O)c4c(O)cc(C)cc4C(=O)C312` (stereo not given in full), the AC50 under setting [2] is 3.66 µM [falling, full curve].
Consider `Nc1ccc(Cl)cc1C(=O)c1ccccc1`, for which the cell number change was -26.4%. In addition, the AC50 under setting [1] was 0.731 µM [falling, single point].
Take `CCC(C)N1C(=O)/C(=C\c2ccc(N3CCCCCC3)cc2)C(=O)NC1=S` (stereo not given): the cell number change is -18.6%. For the same compound, the AC50 under setting [2] was 11.6 µM [rising, partial curve].
As for `O=[N+]([O-])c1ccc(N2CCCC2)c2ccncc12`, the cell number change came to 29%.
As for `COC(=O)Cn1cc(/C=C2\C(=O)NC(=O)N(c3ccc(OC)cc3)C2=O)c2ccccc21`, the cell number change was determined as 12%.
For `C=CCN1C(=O)/C(=C\c2ccc(N3CCOCC3)o2)C(=O)NC1=S`, the cell number change was determined as 100%. Under setting [1], the AC50 is 2.31 µM [falling, partial curve, poor fit]. Further, the AC50 under setting [2] was 32.6 µM [rising, single point].
Consider `O=C(CN1CCCCC1)c1ccccc1Cl`, for which the cell number change was 76.3%. The AC50 under setting [1] was 29.1 µM [rising, single point]. For the same compound, the AC50 under setting [2] is 2.31 µM [rising, single point].
In the case of `COC(=O)C1=C(c2ccc(F)cc2OCc2ccccc2)C[C@@H]2CC[C@H]1N2C(=O)NCc1ccc(Br)cc1`, the cell number change was 4.33%. Further, the AC50 under setting [1] is 1.16 µM [falling, single point]. Also, the AC50 under setting [2] is 29.1 µM [falling, partial curve, poor fit].
With `CCOC(=O)c1c(N)n(Cc2ccccc2)c2nc3ccccc3nc12`, the cell number change is 20.9%. For the same compound, the AC50 under setting [1] is 6.51 µM [rising, single point]. The AC50 under setting [2] is 6.51 µM [falling, single point].
On to `CN(C)/C=C/C(=O)C(Cl)(Cl)Cl`, for which the cell number change was determined as 3.45%. Also, the AC50 under setting [1] was 0.82 µM [falling, partial curve, poor fit]. Also, under setting [2], the half-maximal activity concentration (AC50) is 0.58 µM [falling, full curve, poor fit].

One may read the AC50 as the concentration at which the activity in the assay is half-maximal. A low value points to activity at low concentration.
